# “And” between values parts separate entries of the source, which are not always exact repeats. Identical values can stand only once. *: point of attachment. Cbz = O=C(OCc1ccccc1)*; Boc = CC(C)(C)OC(=O)*; OtBu = CC(C)(C)O*; NHNH2 = NN*
# Test: general procedure: solution-phase peptide synthesis; HONB active esters (ONB), DCC/HONB, azide method
# Settings: coupling step
row,Substance,step yield
1,Cbz-TK(Boc)QS-OMe,90.6%
2,Boc-YGGFMK(Boc)PYTK(Boc)QSHK(Boc)PLITLLK(Boc)HITLK(Boc)NE(OtBu)Q-OtBu,84.0%
3,Cbz-LLK(Boc)HITLK(Boc)NE(OtBu)Q-OtBu,75.4%
4,Cbz-K(Boc)NE(OtBu)Q-OtBu,79.2%
5,Cbz-LLK(Boc)HIT-OH,75.0%
6,Cbz-YTK(Boc)QSHK(Boc)PLITLLK(Boc)HITLK(Boc)NE(OtBu)Q-OtBu,99%
7,Z-Tyr-Gly-Gly-Phe-Met(O)-OH,50.1%
8,Cbz-YTK(Boc)QSHK(Boc)P-OH,57.3%
9,Cbz-LITLLK(Boc)HITLK(Boc)NE(OtBu)Q-OtBu,78.2%
10,Cbz-YTK(Boc)QS-OMe,95.4%
11,Boc-YGGFMK(Boc)P-OtBu,85.7%
12,Cbz-LK(Boc)HIT-OH,65.0%
13,Cbz-LK(Boc)NE(OtBu)Q-OtBu,81.2%
14,Cbz-K(Boc)HIT-OH,46.6%

# Same assay, conditions: late stage modification step
row,Substance,step yield
1,Boc-YGGFMK(Boc)P-OH,90.9%
2,Cbz-YTK(Boc)QS-NHNH2,86.5%
3,Boc-Tyr-Gly-Gly-Phe-Met-OH,68.7%

# Same assay, conditions: late stage modification step; run 1
row,Substance,step yield
1,H-Tyr-Gly-Gly-Phe-Met-OH,78.9%

# Same assay, conditions: late stage modification step; run 2
row,Substance,step yield
1,H-Tyr-Gly-Gly-Phe-Met-OH,100%

# Same assay, conditions: purification step; run 1
row,Substance,step yield
1,H-Tyr-Gly-Gly-Phe-Met-OH,93.2% and 84.1%
